Test results reported in PMC12442633.
No constants are given. Whether binding was seen depends on the method and setting. Binding seen in cells or lysates may run through a third protein. Some binding calls cover weakened binding; strength is not graded here. For some of these results: Tags and fused reporters may be left off the sequences shown.

Protein sequences, listed by entry. Tags and fused reporters are not part of them.
UniProt P31749: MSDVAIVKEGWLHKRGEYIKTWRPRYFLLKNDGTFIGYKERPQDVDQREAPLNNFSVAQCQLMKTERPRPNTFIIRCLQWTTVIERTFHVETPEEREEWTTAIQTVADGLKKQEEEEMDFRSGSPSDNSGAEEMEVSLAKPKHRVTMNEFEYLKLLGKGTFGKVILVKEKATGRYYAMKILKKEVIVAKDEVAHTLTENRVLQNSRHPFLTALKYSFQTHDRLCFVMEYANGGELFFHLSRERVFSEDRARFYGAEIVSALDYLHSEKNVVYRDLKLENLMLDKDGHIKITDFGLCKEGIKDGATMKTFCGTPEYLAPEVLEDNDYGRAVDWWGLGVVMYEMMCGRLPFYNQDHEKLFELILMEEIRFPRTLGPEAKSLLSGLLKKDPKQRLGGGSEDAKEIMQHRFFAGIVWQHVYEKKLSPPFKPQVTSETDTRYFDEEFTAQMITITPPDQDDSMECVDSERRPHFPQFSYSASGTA

Key:
[1] = target: T1, MDA5 (construct of the supplementary figures not shown) (UniProt Q9BYX4); assay: co-IP; with or without EMCV infection; cells, baits and constructs not shown (Figure S5A,E)
T1 sequence: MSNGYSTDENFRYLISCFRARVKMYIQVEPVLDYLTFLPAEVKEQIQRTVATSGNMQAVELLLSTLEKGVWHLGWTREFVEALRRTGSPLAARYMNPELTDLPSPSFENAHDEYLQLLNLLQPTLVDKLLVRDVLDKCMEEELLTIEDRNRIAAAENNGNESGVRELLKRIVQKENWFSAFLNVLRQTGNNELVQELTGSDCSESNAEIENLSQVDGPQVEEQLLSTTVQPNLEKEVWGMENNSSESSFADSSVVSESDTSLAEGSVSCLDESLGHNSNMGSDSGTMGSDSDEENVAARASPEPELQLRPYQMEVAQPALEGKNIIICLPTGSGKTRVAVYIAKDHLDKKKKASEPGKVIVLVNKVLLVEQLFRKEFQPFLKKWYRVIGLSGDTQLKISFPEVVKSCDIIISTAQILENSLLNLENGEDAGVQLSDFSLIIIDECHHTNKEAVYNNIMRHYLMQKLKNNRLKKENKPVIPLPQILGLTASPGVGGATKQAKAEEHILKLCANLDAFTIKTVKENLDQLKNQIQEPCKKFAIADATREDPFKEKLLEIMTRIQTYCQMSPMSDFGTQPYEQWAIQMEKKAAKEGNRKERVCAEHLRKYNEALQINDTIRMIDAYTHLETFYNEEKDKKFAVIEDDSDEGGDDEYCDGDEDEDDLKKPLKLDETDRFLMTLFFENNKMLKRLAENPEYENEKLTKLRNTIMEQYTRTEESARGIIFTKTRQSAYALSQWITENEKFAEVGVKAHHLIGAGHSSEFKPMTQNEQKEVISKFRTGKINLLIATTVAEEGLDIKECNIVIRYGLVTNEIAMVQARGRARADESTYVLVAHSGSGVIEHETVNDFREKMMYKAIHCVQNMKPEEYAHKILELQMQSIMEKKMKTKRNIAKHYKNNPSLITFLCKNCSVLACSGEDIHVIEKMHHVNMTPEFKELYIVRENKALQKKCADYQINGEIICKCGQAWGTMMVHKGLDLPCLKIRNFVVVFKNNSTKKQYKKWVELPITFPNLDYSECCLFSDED

[2] = target: T2, USP8 (construct of the supplementary figures not shown) (human) (UniProt P40818); assay: as above
T2 sequence: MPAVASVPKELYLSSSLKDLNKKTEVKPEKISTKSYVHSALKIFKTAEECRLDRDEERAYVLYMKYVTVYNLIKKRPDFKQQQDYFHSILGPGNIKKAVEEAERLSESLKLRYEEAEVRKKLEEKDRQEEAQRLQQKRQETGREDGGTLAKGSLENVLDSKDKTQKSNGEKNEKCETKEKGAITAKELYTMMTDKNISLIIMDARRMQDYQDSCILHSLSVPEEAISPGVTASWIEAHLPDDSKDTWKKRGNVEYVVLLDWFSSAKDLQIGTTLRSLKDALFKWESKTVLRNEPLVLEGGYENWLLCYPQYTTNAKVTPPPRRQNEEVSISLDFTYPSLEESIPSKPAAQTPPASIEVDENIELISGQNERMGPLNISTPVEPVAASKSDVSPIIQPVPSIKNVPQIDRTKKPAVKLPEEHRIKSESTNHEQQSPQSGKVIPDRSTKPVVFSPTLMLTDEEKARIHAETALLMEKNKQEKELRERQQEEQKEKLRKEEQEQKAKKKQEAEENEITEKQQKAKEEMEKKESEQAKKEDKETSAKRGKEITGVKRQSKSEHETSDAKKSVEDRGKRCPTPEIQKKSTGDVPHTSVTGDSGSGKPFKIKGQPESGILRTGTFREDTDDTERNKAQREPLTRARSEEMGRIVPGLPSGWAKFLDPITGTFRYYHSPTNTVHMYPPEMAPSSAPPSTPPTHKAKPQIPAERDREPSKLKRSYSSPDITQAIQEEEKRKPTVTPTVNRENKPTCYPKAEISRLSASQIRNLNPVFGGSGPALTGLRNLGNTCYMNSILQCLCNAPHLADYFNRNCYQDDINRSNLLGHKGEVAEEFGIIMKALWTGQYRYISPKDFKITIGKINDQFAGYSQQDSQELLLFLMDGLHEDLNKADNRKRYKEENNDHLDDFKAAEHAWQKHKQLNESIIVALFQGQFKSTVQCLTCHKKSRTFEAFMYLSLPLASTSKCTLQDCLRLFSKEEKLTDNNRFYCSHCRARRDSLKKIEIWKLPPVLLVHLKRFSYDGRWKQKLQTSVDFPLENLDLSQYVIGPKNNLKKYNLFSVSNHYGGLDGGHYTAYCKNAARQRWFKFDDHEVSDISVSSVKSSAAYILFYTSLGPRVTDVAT

Myc-MDA5 = target: T3, Myc-MDA5 (UniProt Q9BYX4); assay: co-IP; HEK293T cells transfected with USP8, MDA5 and empty vector or the indicated dose of HA-AKT1; NP-40 lysis buffer; Anti-Myc or S-protein agarose at 4 °C overnight
T3 sequence: T1 sequence

SFB-USP8 (human) = target: T4, SFB-USP8 (human) (UniProt P40818); assay: as above
T4 sequence: T2 sequence

Row | binding [1] | binding [2] | binding (Myc-MDA5) | binding (SFB-USP8 (human)) | Substance
1 | binds | binds |  |  | AKT1 (construct of the supplementary figures not shown) (from UniProt P31749 1-480) (enzyme)
2 |  |  | binds | binds | HA-AKT1 (from UniProt P31749 1-480) (enzyme)
